These are yes or no findings as the source states them, for the method shown. In cells and extracts the contact can be indirect. Some binding calls cover weakened binding; strength is not graded here.
How the values were obtained:
Flag-USP7 (1-206 aa) = Flag-USP7 (1-206 aa) (UniProt Q93009); test: co-IP; 293T cells co-transfected with Flag- and HA-tagged constructs; cell lysates immunoprecipitated with anti-Flag or anti-HA antibodies, immunoblot
Flag-HIF2α (1-174 aa) = Flag-HIF2α (1-174 aa) (UniProt Q99814); test: as above
[1] = biological target: Flag-HIF2α (hypoxia-inducible factor 2α) (UniProt Q99814); test: as above
GST-USP7 (1–206 aa) = GST-USP7 (1–206 aa) (UniProt Q93009); test: pull-down; GST pull-down with recombinant GST-USP7 (1–206 aa) and lysates of 293T cells expressing Flag-HIF2α (1-174 aa); immunoblot; only the target purified
[2] = biological target: endogenous USP7 (human (endogenous in OS-RC-2 and 786-O)) (UniProt Q93009); test: co-IP; lysates of OS-RC-2 or 786-O cells immunoprecipitated with antibodies against USP7; HIF2α detected by immunoblot
[3] = biological target: HA-USP7 (Ubiquitin-Specific Peptidase 7) (UniProt Q93009); test: co-IP; 293T cells co-transfected with Flag- and HA-tagged constructs; cell lysates immunoprecipitated with anti-Flag or anti-HA antibodies, immunoblot

By UniProt entry, the sequences of proteins in these tests, tags left out. Where a name states a change or a piece, a line headed by the entry shows the natural chain unless it says otherwise. Residues count along the entry.
UniProt Q93009: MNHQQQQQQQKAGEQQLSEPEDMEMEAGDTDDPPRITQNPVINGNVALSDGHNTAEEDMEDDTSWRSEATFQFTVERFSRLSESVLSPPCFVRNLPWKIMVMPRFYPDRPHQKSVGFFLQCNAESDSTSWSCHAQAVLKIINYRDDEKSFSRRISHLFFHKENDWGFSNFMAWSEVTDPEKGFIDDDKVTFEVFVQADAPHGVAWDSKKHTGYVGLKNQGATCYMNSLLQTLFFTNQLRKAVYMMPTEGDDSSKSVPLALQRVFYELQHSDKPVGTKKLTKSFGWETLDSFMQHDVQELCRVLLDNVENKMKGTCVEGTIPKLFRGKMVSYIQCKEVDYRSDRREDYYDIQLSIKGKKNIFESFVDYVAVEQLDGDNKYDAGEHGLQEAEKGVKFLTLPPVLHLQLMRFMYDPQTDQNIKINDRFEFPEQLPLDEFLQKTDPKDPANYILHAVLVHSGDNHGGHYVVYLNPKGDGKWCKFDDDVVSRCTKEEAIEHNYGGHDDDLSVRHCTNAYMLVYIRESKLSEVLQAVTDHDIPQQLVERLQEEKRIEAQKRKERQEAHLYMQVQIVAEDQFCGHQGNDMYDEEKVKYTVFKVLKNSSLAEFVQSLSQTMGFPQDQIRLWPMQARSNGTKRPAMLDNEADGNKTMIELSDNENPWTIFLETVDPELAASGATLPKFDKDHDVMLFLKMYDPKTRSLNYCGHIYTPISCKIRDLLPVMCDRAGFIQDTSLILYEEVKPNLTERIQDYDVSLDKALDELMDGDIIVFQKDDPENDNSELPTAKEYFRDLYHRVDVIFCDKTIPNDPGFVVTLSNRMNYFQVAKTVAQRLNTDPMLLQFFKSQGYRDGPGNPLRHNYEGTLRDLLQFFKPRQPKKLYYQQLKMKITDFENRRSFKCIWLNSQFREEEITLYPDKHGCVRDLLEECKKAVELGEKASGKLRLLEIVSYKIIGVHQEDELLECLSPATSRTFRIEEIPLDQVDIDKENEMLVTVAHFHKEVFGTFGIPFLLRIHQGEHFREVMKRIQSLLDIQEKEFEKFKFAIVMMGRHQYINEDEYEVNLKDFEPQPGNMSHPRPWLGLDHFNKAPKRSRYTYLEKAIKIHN
GST-USP7 (1–206 aa): residues 1-206 of Q93009
UniProt Q99814: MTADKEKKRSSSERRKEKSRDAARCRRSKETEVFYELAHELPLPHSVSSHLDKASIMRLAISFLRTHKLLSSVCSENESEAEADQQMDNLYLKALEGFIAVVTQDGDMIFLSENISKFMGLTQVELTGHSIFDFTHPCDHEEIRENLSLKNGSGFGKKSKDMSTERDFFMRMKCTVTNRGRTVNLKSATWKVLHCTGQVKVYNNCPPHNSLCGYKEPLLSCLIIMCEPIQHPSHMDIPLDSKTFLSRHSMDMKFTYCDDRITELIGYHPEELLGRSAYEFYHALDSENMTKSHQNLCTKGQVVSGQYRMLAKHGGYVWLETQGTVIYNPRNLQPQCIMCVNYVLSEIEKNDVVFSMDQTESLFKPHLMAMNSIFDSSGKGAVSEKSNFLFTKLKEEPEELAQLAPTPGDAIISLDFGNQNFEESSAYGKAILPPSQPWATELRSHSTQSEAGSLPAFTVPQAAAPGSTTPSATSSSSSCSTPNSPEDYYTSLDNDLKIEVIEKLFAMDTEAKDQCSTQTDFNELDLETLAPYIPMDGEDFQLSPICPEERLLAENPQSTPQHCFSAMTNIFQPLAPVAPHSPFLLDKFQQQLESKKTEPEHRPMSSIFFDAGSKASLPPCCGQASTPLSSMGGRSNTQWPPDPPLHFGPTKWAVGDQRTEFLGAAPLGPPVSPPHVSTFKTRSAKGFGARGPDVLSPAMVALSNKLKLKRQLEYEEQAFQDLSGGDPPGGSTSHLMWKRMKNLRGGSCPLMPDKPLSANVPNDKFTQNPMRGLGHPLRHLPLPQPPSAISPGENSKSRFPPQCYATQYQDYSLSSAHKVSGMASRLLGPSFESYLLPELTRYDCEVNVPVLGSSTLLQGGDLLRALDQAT

In the case of HA-HIF2α (from UniProt Q99814 1-870), the binding (Flag-USP7 (1-206 aa)) was “binds”.
With “HA-USP7 (Ubiquitin-Specific Peptidase 7) (from UniProt Q93009 1-1102) (enzyme)” the binding (Flag-HIF2α (1-174 aa)) was “binds” and the binding [1] was “binds”.
For “Flag-HIF2α (1-174 aa) (from UniProt Q99814 1-174) (domain or fragment)”, the binding (GST-USP7 (1–206 aa)) was “binds”.
“endogenous HIF2α (from UniProt Q99814 1-870)” was tested, and the binding [2] was “binds”.
For “Flag-HIF2α (hypoxia-inducible factor 2α) (from UniProt Q99814 1-870)”, the binding [3] was “binds”.
